Measurements reported in PubChem BioAssay AID1224828 (NIAID, 2016)

Assay: 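Regulators linking TLR4 signalling to p65 nuclear translocation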 (primary screen)
System: mouse RAW264.7 G9 macrophage reporter cells (GFP-p65, Tnf promoter-mCherry)
Knock-down reagent: siRNA pool against mouse genes, 100 nM
Time to read-out: 2 days siRNA transfection, then 40 min LPS before fixation
Treatment: LPS (Salmonella minnesota R595) at 10 ng/ml
Read-out: 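Microscopy ratio of nuclear to perinuclear-ring GFP-p65 signal, scaled to the plate median; gene score is the average of two replicate robust z-scores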
Direction: p65 translocation robust z-score: higher = more nuclear NF-kappaB p65 after LPS than the plate median; nuclear/cytoplasmic p65 ratio: higher = more nuclear NF-kappaB p65
Call rule: 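Active if robust z is above 3.3 (negative regulators) or below -1.56, the Tlr4 control median (positive regulators); activity score 50 or more; control wells not called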
Meaning of the calls: active = hit (p65 shift raised or lowered); inactive = no clear change
In all, the deposit lists about 17,000 reagents; shown is a part drawn at random. 762 of them (4.5%) count as active. 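Active calls include both raised and lowered p65 entry, mostly lowered; wells with fewer than 50 cells lack a z-score.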 Raw values vary from plate to plate and are shown uncorrected. No sequences are given here.

no.	Gene	p65 translocation robust z-score	nuclear/cytoplasmic p65 ratio, rep 1	nuclear/cytoplasmic p65 ratio, rep 2	low cell count flag	call
1	Rpl3 (ribosomal protein L3)		1.15	1.13	fewer than 50 cells per well; well left out of scoring	inactive
2	Entrep2 (endosomal transmembrane epsin interactor 2)	-0.35	1.29	1.45	enough cells to score	inactive
3	Synj2 (synaptojanin 2)	12.8	1.67	5.13	enough cells to score	active
4	E130006D01Rik (RIKEN cDNA E130006D01 gene)	1.64	1.65	1.61	enough cells to score	inactive
5	Setd1b (SET domain containing 1B)		1.64	2.09	fewer than 50 cells per well; well left out of scoring	inactive
6	Or52ab4 (olfactory receptor family 52 subfamily AB member 4)		1.34	1.28	fewer than 50 cells per well; well left out of scoring	inactive
7	Prss3b (serine protease 3B)	-0.45	1.58	1.51	enough cells to score	inactive
8	Rnf130 (ring finger protein 130)	0.48	1.57	1.27	enough cells to score	inactive
9	Trhr (thyrotropin releasing hormone receptor)	-2.14	1.22	1.27	enough cells to score	active
10	Cab39l (calcium binding protein 39-like)		1.39	1.37	fewer than 50 cells per well; well left out of scoring	inactive
11	Hoxa4 (homeobox A4)	-0.95	1.24	1.32	enough cells to score	inactive
12	Fam241b (family with sequence similarity 241, member B)		1.52	1.31	fewer than 50 cells per well; well left out of scoring	inactive
13	Ppp1r13b (protein phosphatase 1, regulatory subunit 13B)	0.81	1.5	1.62	enough cells to score	inactive
14	Sdcbp2 (syndecan binding protein (syntenin) 2)	1.26	1.62	1.34	enough cells to score	inactive
15	E2f4 (E2F transcription factor 4)	-0.88	1.35	1.27	enough cells to score	inactive
16	Nr1i3 (nuclear receptor subfamily 1, group I, member 3)	0.7	1.58	1.47	enough cells to score	inactive
17	Tpd52l2 (tumor protein D52-like 2)	-0.75	1.44	1.39	enough cells to score	inactive
18	Hnrnpa3 (heterogeneous nuclear ribonucleoprotein A3)	-0.01	1.45	1.41	enough cells to score	inactive
19	Adam12 (ADAM metallopeptidase domain 12)	-0.05	1.63	1.6	enough cells to score	inactive
20	Pdgfrl (platelet-derived growth factor receptor-like)	-0.84	1.37	1.27	enough cells to score	inactive
21	Itfg2 (integrin alpha FG-GAP repeat containing 2)	-0.14	1.35	1.48	enough cells to score	inactive
22	Sprr4 (small proline-rich protein 4)	-0.13	1.32	1.22	enough cells to score	inactive
23	Tmem17 (transmembrane protein 17)	-1.1	1.22	1.18	enough cells to score	inactive
24	Acot10 (acyl-CoA thioesterase 10)	1.39	1.7	2.02	enough cells to score	inactive
25	Or4c31 (olfactory receptor family 4 subfamily C member 31)	-1.28	1.46	1.39	enough cells to score	inactive
26	Pla2g4a (phospholipase A2, group IVA (cytosolic, calcium-dependent))	-1.65	1.26	1.2	enough cells to score	active
27	Tex13a (testis expressed 13A)	2.08	1.9	1.45	enough cells to score	inactive
28	Mt2 (metallothionein 2)	0.27	1.49	1.37	enough cells to score	inactive
29	Clca1 (chloride channel accessory 1)	-1	1.43	1.63	enough cells to score	inactive
30	Gipc1 (GIPC PDZ domain containing family, member 1)		1.47	1.07	fewer than 50 cells per well; well left out of scoring	inactive
31	Jpt1 (Jupiter microtubule associated homolog 1)	-0.49	1.64	1.4	enough cells to score	inactive
32	Entpd6 (ectonucleoside triphosphate diphosphohydrolase 6)	-0.52	1.55	1.36	enough cells to score	inactive
33	Tfpt (TCF3 (E2A) fusion partner)	-0.7	1.39	1.45	enough cells to score	inactive
34	Or5k17 (olfactory receptor family 5 subfamily K member 17)	-1.61	1.36	1.21	enough cells to score	active
35	Enoph1 (enolase-phosphatase 1)	-0.33	1.55	1.58	enough cells to score	inactive
36	Igbp1 (immunoglobulin (CD79A) binding protein 1)	-0.26	1.38	1.37	enough cells to score	inactive
37	Dnal4 (dynein, axonemal, light chain 4)	-1.66	1.23	1.08	enough cells to score	active
38	Neto1 (neuropilin (NRP) and tolloid (TLL)-like 1)		1.38	1.07	fewer than 50 cells per well; well left out of scoring	inactive
39	Hmgxb4 (HMG box domain containing 4)	-0.2	1.39	1.37	enough cells to score	inactive
40	Map6d1 (MAP6 domain containing 1)	0.31	1.78	1.73	enough cells to score	inactive
